At least one compound was matched to its structure with a doubt left.
Target: T1, MetAP-2 (Rattus norvegicus, UniProt P38062)
T1 construct: wbc from animals of each study group were pooled and cell lysates were prepared as previously described; from tissue; host or cells: white blood cells (wbc) of female Lewis rats, pooled per study group and lysed
Assay: MetAP-2 pharmacodynamic assay in wbc lysates
Assay type: in vivo
Settings: 12 days at 1 mg/kg, qod, every 4 days or every 6 days
Description: MetAP-2 pharmacodynamic assay. The MetAP-2 assay measures the amount of uninhibited MetAP-2 in cells or tissues which has not been derivitized by prior treatment with the MetAP-2 inhibitor (Bernier (2004) Proc. Natl. Acad. Sci. USA 101: 10768-10773 and Bernier (2005) J. Cell. Biochem. 95: 1191-1203). Briefly, wbc from animals of each study group were pooled and cell lysates were prepared as previously described (Bernier (2004) Proc. Natl. Acad. Sci. USA 101: 10768-10773 and Bernier (2005) J. Cell. Biochem. 95: 1191-1203). 10 μg to 20 μg of wbc protein was incubated with a biotinylated analog of the MetAP-2 inhibitor which covalently binds to the catalytic site of MetAP-2. The biotinylated MetAP-2-inhibitor complex was captured on a plate with immobilized streptavidin (Pierce), and detected with the MetAP-2 antibody CM33 (0.5 μg/ml), followed by horseradish peroxidase-conjugated goat anti-rabbit IgG secondary antibody. The amount of uninhibited MetAP-2 was determined by measuring the absorption at 450 nm using a Labsystems Multiskan plate spectrophotometer. Human recombinant MetAP-2 (Mediomics), pre-bound to the biotinylated MetAP-2 inhibitor, was used to generate the standard curve. The detection limit of this assay was 0.47 ng MetAP-2 protein/mg wbc protein. […]

Amino acid sequences for entries named in this document (tags omitted). A change or cut given only in a name is not applied to a line headed by its entry.
UniProt P38062: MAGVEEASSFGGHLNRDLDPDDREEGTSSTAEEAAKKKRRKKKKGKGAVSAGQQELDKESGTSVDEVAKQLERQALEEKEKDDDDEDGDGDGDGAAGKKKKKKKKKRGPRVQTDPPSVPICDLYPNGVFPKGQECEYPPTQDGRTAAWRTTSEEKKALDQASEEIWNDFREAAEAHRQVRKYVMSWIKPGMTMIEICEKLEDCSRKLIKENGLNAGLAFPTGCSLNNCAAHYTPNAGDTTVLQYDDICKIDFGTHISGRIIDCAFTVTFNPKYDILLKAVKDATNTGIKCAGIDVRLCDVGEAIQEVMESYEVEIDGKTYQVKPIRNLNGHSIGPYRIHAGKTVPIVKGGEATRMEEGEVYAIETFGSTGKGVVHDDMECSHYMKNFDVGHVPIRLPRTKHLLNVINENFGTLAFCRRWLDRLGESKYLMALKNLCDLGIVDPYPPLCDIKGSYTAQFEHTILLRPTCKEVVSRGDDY

## C[C@@H]1C[C@H]2[C@@H]3CCC4=CC(=O)C=C[C@]4(C)[C@@]3(F)[C@@H](O)C[C@]2(C)[C@@]1(O)C(=O)CO [dex, dexamethasone, reference compound]
  MetAP-2 inhibition in naïve animals: No MetAP-2 inhibition

From patent publication US20070254843A1, “Methods for treating bone associated diseases by the use of methionine aminopeptidase-2 inhibitors” (Praecis Pharmaceuticals Incorporated, priority 2006, published 2007)
